Experimental data reported in PubChem BioAssay AID1671190 (National Center for Advancing Translational Sciences (NCATS), 2021).
“And” between values parts separate entries of the source, which are not always exact repeats. Equal entries are not always repeated. Hit rate of the full screen: of about 580,000 compounds, about 6,100 (1.1%) were called active. The shares of active, inactive and inconclusive entries below differ from those in the screen. Calls come from the whole dose curve; as a rule, active = well fitted inhibition curve with a large enough effect; inconclusive = small, poorly fitted or top-dose-only effect, or another doubt; inactive = no such curve, though single readings can be large or run the other way. A potency beside an inconclusive call is a rough fit, not a confirmed value. Some compounds were tested as several samples or in several runs, with calls that do not always agree.

By UniProt entry, the sequences of proteins in these tests, tags left out. Where a name states a change or a piece, a line headed by the entry shows the natural chain unless it says otherwise.
UniProt P18054: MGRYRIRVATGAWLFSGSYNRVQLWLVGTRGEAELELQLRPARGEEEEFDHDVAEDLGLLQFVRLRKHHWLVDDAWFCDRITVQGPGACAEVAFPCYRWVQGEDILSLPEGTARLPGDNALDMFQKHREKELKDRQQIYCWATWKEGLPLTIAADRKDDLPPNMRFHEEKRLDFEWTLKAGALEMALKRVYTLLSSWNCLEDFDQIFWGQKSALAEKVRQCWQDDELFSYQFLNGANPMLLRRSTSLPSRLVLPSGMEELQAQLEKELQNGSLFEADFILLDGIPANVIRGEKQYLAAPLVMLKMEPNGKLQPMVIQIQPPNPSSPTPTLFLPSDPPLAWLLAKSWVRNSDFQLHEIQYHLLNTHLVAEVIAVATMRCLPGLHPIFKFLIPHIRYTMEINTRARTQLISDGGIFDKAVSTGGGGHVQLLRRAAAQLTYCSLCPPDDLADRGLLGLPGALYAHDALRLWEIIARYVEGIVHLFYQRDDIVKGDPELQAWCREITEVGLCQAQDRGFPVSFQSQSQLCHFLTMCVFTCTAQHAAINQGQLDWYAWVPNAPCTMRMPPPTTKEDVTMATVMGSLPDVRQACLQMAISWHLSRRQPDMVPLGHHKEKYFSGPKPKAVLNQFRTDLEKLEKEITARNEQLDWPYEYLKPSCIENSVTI

Target: Polyunsaturated fatty acid lipoxygenase ALOX12 (Homo sapiens) (UniProt P18054)
Assay: Primary qHTS assay for inhibitors of human arachidonate 12S-lipoxygenase (ALOX12): Round 2
Settings: purified 12hLO, xylenol orange hydroperoxide absorbance; series mostly up to 108 µM
Summary of the method: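 Purified human 12hLO (150 nM final) in 25 mM Hepes, 0.01% Triton X-100, pH 7.0 was preincubated 15 min at room temperature with compound. Then 40 uM arachidonic acid was added, 30 min. Hydroperoxide was read by Fe-XO absorbance ratio 573/405 nm.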
Potency is the fitted concentration of half-maximal effect.

| SMILES | Potency |
| --- | --- |
| Cc1ccc(S(C)(=O)=O)cc1C(=O)OCC(=O)C(C)(C)C | inactive |
| Cc1cc(NC(=O)CN2CCCC(C)C2)no1 (stereo unspecified) | inconclusive: 2.82 µM [inhibitor, full curve, poor fit] |
| O=C1C2C(C(=O)N1/N=C/c1ccc(N3CCCCC3)o1)C1C=CC2C12CC2 (stereo unspecified) | inconclusive: 22.4 µM [inhibitor, partial curve, poor fit] |
| CC(Nc1oc(COc2ccccc2Cl)nc1C#N)c1ccccc1 (stereo unspecified) | inconclusive: 39.8 µM [inhibitor, partial curve, poor fit] |
| O=C(Nc1ccc(S(=O)(=O)Nc2ccc(Cl)cc2)cc1)C1CCCO1 (stereo unspecified) | inconclusive: 100 µM [inhibitor, single point] |
| COC(=O)C(NC(=O)c1ccc(Cl)cc1)(Nc1nc(C2CC2)cs1)C(F)(F)F (stereo unspecified) | inconclusive: 89.1 µM [inhibitor, partial curve, poor fit] |
| CC1CCN(CC(=O)Nc2nc(-c3ccccc3)cs2)CC1 | inactive |
| CC1CCN(C(=O)CSc2ccc(-c3ccc(F)cc3)nn2)CC1 | inactive |
| CCNc1ccc(S(=O)(=O)N(CC)CC)cc1NCC(=O)Nc1ccccc1Cl | inconclusive: 89.1 µM [inhibitor, partial curve, poor fit] |
| CCc1ccc(NC(=O)c2ccc(F)c(S(=O)(=O)NCCc3ccc(OC)c(OC)c3)c2)cc1 | inconclusive: 56.2 µM [inhibitor, partial curve, poor fit] |
| COC(=O)C1CN(C2CCCC2)CCS(=O)(=O)N1Cc1cn(Cc2ccc(F)cc2)nn1 (stereo unspecified) | inactive |
| COc1ccc(OC)c(Nc2c3c(nc4ccccc24)CCC3)c1 | inactive |
| O=C(c1ccc2c(c1)N(Cc1ccccc1)CCS2)N1CCCCC1 | inconclusive: 3.98 µM [inhibitor, full curve, poor fit] |
| CCNC(=O)NC(=O)C(C)OC(=O)c1ccc2ccccc2n1 (stereo unspecified) | inconclusive: 39.8 µM [inhibitor, partial curve, poor fit] |
| COC(=O)c1nc(NC(=O)c2cccc(Br)c2)n[nH]1 | inactive |
| Clc1ccccc1C1(c2ccnc(NC3CC3)n2)CCNCC1 | inconclusive: 17.8 µM [inhibitor, full curve] |
| C=CCC(C=C)S(=O)(=O)c1ccc(C)cc1 (stereo unspecified) | inactive |
| CNC(=S)N/N=C(/C)c1ccccn1 | inconclusive: 100 µM [inhibitor, single point] |
| CN(C)C(=O)c1cccn1-c1ncc(C(F)(F)F)cc1Cl | inactive |
| CC(=O)C1=CCC(c2ccc(C(C)C)cc2)N(S(=O)(=O)c2ccc(C)cc2)C1 (stereo unspecified) | inactive |
| Cc1cccc(CC(=O)N2[C@@H]3CC[C@H]2CC(NC(=O)c2ccc(F)cc2)C3)c1 (stereo partly specified) | inactive |
| O=[N+]([O-])c1cc([N+](=O)[O-])c(N2CCOCC2)cc1NCc1ccccc1 | inconclusive: 44.7 µM [inhibitor, partial curve, poor fit] |

| SMILES | Potency |
| --- | --- |
| COCCCn1c(=S)[nH]c(C)c(C)c1=O | inconclusive: 39.8 µM [inhibitor, partial curve, poor fit] |
| C[C@H]1O[C@H](O[C@H]2[C@H](O)[C@@H](O)[C@@H](O[C@H]3[C@H](O)[C@@H](O)C(O)O[C@H]3CO)O[C@H]2CO)[C@H](O)[C@@H](O)[C@H]1N[C@H]1C=C(CO)[C@@H](O)[C@H](O)[C@@H]1O (stereo partly specified) | inconclusive: 7.69 µM [inhibitor, partial curve, poor fit] |
| CS(=O)(=O)N1CCc2cc(C(=O)Nc3ccc(S(N)(=O)=O)cc3)ccc21 | inconclusive: 100 µM [inhibitor, partial curve, poor fit] |
| COC(=O)c1ccc(C)c(NC(=O)CSc2sc3c(O)cc(=O)[nH]c3c2C#N)c1 | inconclusive: 3.55 µM [inhibitor, full curve, poor fit] |
| Cc1ccc(C)c(CN2CCN(c3ncccn3)CC2)c1 | inconclusive: 0.398 µM [inhibitor, full curve, poor fit] |
| Cc1ccc(CN2C(=O)C(CC(C)C)Nc3ncnc(N4CCCCC4)c32)cc1 (stereo unspecified) | inconclusive: 31.6 µM [inhibitor, partial curve, poor fit] |
| CC(CCc1ccco1)NC(=O)CCc1nnc2ccc(N3CCC4(CC3)OCCO4)nn12 (stereo unspecified) | inactive |
| O=C(CN1C(=O)S/C(=C\c2ccccc2Cl)C1=O)NCCCn1ccnc1 | inactive |
| COc1ccc(-c2[nH]c(-c3ccc4c(c3)OCO4)nc2-c2ccccc2)cc1 | inactive |
| NC(=O)c1cc(Br)cc2c3c([nH]c12)CCCC3 | inconclusive: 39.8 µM [inhibitor, full curve, poor fit] |
| Oc1cccc2ccc[n+](CC(O)Cn3c4ccccc4c4ccccc43)c12 (stereo unspecified) | inconclusive: 70.8 µM [inhibitor, single point] |
| CCCN(CC(=O)Nc1ccccc1C)C(=O)c1cc2ccccc2oc1=O | active: 12.6 µM |
| CCOC(=O)c1sc2nc(C)n(N)c(=O)c2c1C | inactive |
| O=c1[nH]c(/C=C/c2cccc3ccccc23)nc2ccccc12 | inconclusive: 50.1 µM [inhibitor, partial curve, poor fit] |
| O=C(/C=C/c1csc(-c2ccc(F)cc2)n1)N1CCN(c2cccc(C(F)(F)F)c2)CC1 | inconclusive: 44.7 µM [inhibitor, partial curve, poor fit] |
| CN1CCN(C(=O)CN2CCN(C(C(=O)O)c3cn(CC(=O)O)c4cc(Cl)ccc34)CC2)CC1 (stereo unspecified) | inconclusive: 15.8 µM [inhibitor, full curve] |
| O=C(CSc1ccc2ccccc2c1)c1ccc2c(c1)CCC2 | active: 35.5 µM |
| CC(=O)c1ccc2c(c1)N(CCCN1CCC(CCO)CC1)c1ccccc1S2 | inconclusive: 5.73 µM [inhibitor, partial curve] and inconclusive: 44.7 µM [inhibitor, partial curve, poor fit] |
| COc1cc(OC)c(OC)cc1CNC(=O)Nn1cnc2ccccc21 | inactive |
| O=[S+]([O-])(c1cccc(C(F)(F)F)c1)N1CCC2(CCN(CCc3ccccc3)c3ccccc3O2)CC1 | inconclusive: 39.8 µM [inhibitor, full curve] |
| O=C(COC(=O)c1cc2c(F)cccc2s1)NCC1CCCO1 (stereo unspecified) | inactive |
| COc1cc(OC)c(CN2CCN(c3ccc(F)cc3)CC2)cc1Br | inconclusive: 2 µM [inhibitor, partial curve, poor fit] |

| SMILES | Potency |
| --- | --- |
| Cc1ccc(-c2nc3n(n2)C(CC(=O)Nc2ccc(C(C)C)cc2)C(=O)N3)cc1 (stereo unspecified) | inconclusive: 25.1 µM [inhibitor, partial curve, poor fit] |
| Cc1ccc(-c2c(C)nn3c2NC(=O)CCC3=O)cc1S(=O)(=O)NCc1ccco1 | inactive |
| O=C(C[C@@H]1C/C=C\CC[C@@H](Cc2ccc(F)cc2)C(=O)OC[C@@H](Cc2ccccc2)NC1=O)NCCO | inconclusive: 89.1 µM [inhibitor, partial curve, poor fit] |
| CC(=O)N1C[C@@H](CO)[C@H](NC(=O)c2ccccc2)C1 | inactive |
| COc1ccc(NC(=O)CSc2nc3nc(-c4cccs4)cc(C(F)(F)F)c3c(=O)[nH]2)c(OC)c1 | inconclusive: 50.1 µM [inhibitor, partial curve, poor fit] |
| Cn1c(Oc2ccccc2)nc2c1c(=O)n(Cc1ccc(Cl)cc1Cl)c(=O)n2C | inconclusive: 44.7 µM [inhibitor, partial curve, poor fit] |
| CC(C)(C)OC(=O)N1CCC(c2c(C(=O)N3CCCCC3)cnn2-c2ccc(F)cc2F)CC1 | inactive |
| COc1ccc(CCNC(=S)Nc2cccc(F)c2)cc1 | inconclusive: 44.7 µM [inhibitor, partial curve, poor fit] |
| CCNC(=O)c1cc(-c2ccccn2)nc2ccccc12 | inactive |
| O=C(Cc1ccc(Cl)cc1)Nc1ccc2nn(-c3ccccc3)nc2c1 | inactive |
| O=C(O)C[C@@H]1CCN(C(=O)c2ccc(F)cc2)C[C@@H]1CCN1CCOCC1 | inactive |
| CC(C)CCNc1ncnc2c1cnn2-c1cccc(Cl)c1 | inconclusive: 112 µM [inhibitor, partial curve, poor fit] |
| CN1CC=C2C(C#N)=C(N)C(C#N)(C#N)[C@H](c3cccc(Cl)c3)C2C1 (stereo partly specified) | inactive |
| CS(=O)(=O)N1CCCC(C(=O)NCCN2CCc3ccccc3C2)CCNC(=O)CC1 (stereo unspecified) | inactive |
| Cc1nn(-c2ccccc2)c2c1/C(=N/O)CC(C)(C)C2 | inconclusive: 112 µM [inhibitor, single point] |
| Cc1[nH]c(=O)c(C#N)cc1-c1ccccc1 | inconclusive: 0.398 µM [inhibitor, full curve, poor fit] |
| CN(C)CCC(=O)C(Cc1ccccc1)c1ccccc1 (stereo unspecified) | inconclusive: 0.501 µM [inhibitor, full curve, poor fit] |
| O=C1NCCN1Cc1ccccc1 | inactive |
| CNc1nc(-c2c[nH]c3ccccc23)cs1 | inconclusive: 11.2 µM [inhibitor, partial curve, poor fit] |
| CCOC(=O)/C(C#N)=C1\C(=O)N(Cc2ccccc2)c2ccccc21 | inconclusive: 112 µM [inhibitor, partial curve, poor fit] |
| CCOC(=O)c1cnc2nc(Cc3ccccc3)[nH]n2c1=O | inconclusive: 35.5 µM [inhibitor, partial curve, poor fit] |
| C[C@@H](c1ccccc1)N1C[C@H](COCc2ccccc2)Oc2cc(N3CCC[C@@H]3CO)ccc2S1(=O)=O | inconclusive: 39.8 µM [inhibitor, partial curve, poor fit] |

A different layout for part of the listing above:
SMILES | Potency
O=C(C[C@@H]1C/C=C\CC[C@@H](Cc2ccc(F)cc2)C(=O)OC[C@@H](Cc2ccccc2)NC1=O)NCCO | inconclusive: 89.1 µM [inhibitor, partial curve, poor fit]
CC(=O)N1C[C@@H](CO)[C@H](NC(=O)c2ccccc2)C1 | inactive
COc1ccc(NC(=O)CSc2nc3nc(-c4cccs4)cc(C(F)(F)F)c3c(=O)[nH]2)c(OC)c1 | inconclusive: 50.1 µM [inhibitor, partial curve, poor fit]
